What was measured:
in vitro = conditions: pig, PAMPA, pH 7.4
[1] = PAMPA

In the case of `COc1cc2c(cc1OC)C(=O)C(CC1CCN(Cc3ccccc3)CC1)C2` (centres unmarked) [donepezil, reference compound], the Papp (in vitro) is reported as 13.3 ± 1.82 ×10⁻⁶ cm/s and the “prediction of CNS permeation” value [1] is reported as “CNS+”.
